From article PMC9973269 come the findings set out here.

The target of the experiment is T1, GST-ScaA (passenger domain of ScaA, ScaA_(30-1000), Boryong genotype) (Orientia tsutsugamushi (Boryong genotype)).
T1 sequence: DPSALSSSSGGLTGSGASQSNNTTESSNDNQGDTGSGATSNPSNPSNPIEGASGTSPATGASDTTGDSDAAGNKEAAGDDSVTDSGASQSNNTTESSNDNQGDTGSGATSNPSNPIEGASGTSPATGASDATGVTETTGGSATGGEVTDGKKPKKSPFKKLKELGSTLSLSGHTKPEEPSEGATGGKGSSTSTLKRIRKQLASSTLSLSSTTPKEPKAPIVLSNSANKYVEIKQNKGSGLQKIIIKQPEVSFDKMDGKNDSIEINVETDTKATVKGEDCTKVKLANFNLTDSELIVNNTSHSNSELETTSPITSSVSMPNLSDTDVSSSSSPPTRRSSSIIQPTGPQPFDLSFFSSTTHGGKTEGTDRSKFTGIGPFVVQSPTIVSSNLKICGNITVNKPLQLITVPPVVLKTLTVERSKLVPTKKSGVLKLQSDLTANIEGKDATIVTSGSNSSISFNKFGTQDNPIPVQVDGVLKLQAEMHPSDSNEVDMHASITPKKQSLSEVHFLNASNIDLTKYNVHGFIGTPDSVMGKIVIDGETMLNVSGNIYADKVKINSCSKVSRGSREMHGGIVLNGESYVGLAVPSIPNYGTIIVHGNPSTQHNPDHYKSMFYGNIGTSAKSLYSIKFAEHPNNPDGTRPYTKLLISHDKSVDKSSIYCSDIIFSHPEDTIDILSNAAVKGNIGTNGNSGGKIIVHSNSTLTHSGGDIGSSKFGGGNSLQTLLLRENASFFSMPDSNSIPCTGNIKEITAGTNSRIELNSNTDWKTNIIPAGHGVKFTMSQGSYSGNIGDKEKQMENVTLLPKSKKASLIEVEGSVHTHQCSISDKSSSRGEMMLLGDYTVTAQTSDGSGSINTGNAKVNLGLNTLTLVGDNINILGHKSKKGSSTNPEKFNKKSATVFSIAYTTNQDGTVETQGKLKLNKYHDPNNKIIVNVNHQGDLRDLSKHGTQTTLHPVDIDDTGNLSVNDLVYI
Kind of experiment: pull-down; GST fusion proteins bound to glutathione beads, incubated with lysate (NP-40 buffer) of cells transfected with full-length or truncated vMLL5 at 4°C for 4 h; washed four times with 20 mM HEPES pH 7.4, 100 mM NaCl, 1% NP-40; immunoblot with anti-HA; only the target purified.

Results are given in words; binding and its absence hold for the method and conditions named. Binding seen in cells or lysates may run through a third protein. A result given as binding can be weak or reduced; the word gives no strength. Tags and fused reporters may be left off the sequences shown.

For the substance “vMLL5 (alternative splicing variant of mixed-lineage leukemia 5), full length (human)”, the binding entry is reported as “binds”.
